The test concerns the target retinoid X receptor alpha (RXRα), full-length wild-type human, His-tag cleaved (human) (UniProt P19793). The test is described as follows: protein-binding microarray (double-stranded DNA probes), each partner detected by its own antibody; purified RXRα combined with purified partner NR at a 3:1 NR:RXRα ratio (exceptions in Supplementary Data 1), incubated 1 h on the DNA array in PBS pH 7.4, 2% milk, 0.02% Triton X-100, 1 mM DTT, BSA, salmon testes DNA, no ligand; separate arrays probed with anti-RXRα and with an antibody to the partner; agreement of the two profiles taken as heterodimer binding; both purified.

Protein sequences, listed by entry. Tags and fused reporters are not part of them.
UniProt P19793: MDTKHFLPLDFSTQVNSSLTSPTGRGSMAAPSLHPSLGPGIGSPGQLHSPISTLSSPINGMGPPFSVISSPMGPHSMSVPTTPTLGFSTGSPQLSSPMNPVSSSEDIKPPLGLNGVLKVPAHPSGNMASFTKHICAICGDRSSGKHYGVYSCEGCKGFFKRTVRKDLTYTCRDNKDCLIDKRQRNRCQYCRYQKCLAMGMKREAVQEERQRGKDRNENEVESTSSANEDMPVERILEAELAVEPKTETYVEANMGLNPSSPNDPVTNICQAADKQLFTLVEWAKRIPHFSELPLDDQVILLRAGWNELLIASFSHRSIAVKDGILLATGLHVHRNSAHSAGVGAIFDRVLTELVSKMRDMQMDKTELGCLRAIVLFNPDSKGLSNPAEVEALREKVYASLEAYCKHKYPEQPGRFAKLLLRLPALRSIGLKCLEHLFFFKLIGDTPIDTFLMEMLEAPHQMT

This passage reports binding results from paper PMC6555819, “Comprehensive study of nuclear receptor DNA binding provides a revised framework for understanding receptor specificity”.

No constants are given. Whether binding was seen depends on the method and setting. A result given as binding can be weak or reduced; the word gives no strength.

Consider THRα (from UniProt P10827-2), for which the binding entry is recorded as “binds”.
